PubChem BioAssay AID1508597, Cure First – 2020
Shown is a random part of the about 2,100 reagents, under one of the conditions tested. 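Calls flag viability under 80% in either arm, not effects specific to rucaparib; the reference for percent is not stated.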 Reagent sequences are not shown. The record does not give: the 100% reference.

Test: 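Survival screen with siRNA in ovarian cancer cells derived from patients, with or without rucaparib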 (primary screen)
Cells: human ovarian carcinoma lines grown from tumours: OCI-P5x (papillary serous) and OCI-C5x (clear cell)
Reagents: siRNA pool against human genes, 1.25 pmol siRNA per well
Time to read-out: 72 h or 96 h, depending on the cell culture
Treatment: rucaparib 20 µM (about IC30) or vehicle, present until read-out
Rucaparib or vehicle: Rucaparib
Cell line: OCI-C5x (clear cell)
Read-out: 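Luminescent ATP-based viability assay read 72 or 96 h after transfection, depending on culture, given as normalised percent viability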
Direction: viability, normalised: higher = more viable cells remaining
Rule for the call: 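a well counts as a hit if its normalised viability is under 80 percent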
Calls: active = viability under 80%; inactive = viability 80% or more

gene	technical replicate	viability, normalised (%)	Outcome
ELAC1	1	60.2	active
ELAC1	2	59.2	active
ELAC1	3	46	active
STK33	1	61.1	active
STK33	2	65.3	active
STK33	3	54	active
MPP2	1	62	active
MPP2	2	60	active
MPP2	3	58	active
MLLT6	1	46.1	active
MLLT6	2	38.8	active
MLLT6	3	47.4	active
BPTF	1	30.2	active
BPTF	2	16.6	active
BPTF	3	23.7	active
ATF7IP2	1	45	active
ATF7IP2	2	53.3	active
ATF7IP2	3	49.5	active
PDPK1	1	36.1	active
PDPK1	2	48.1	active
PDPK1	3	48.5	active
HSPA5	1	23.6	active
HSPA5	2	41.1	active
HSPA5	3	42.2	active
STK17A	1	36.1	active
STK17A	2	43.2	active
STK17A	3	50.1	active
ZSCAN21	1	66.4	active
ZSCAN21	2	64.7	active
ZSCAN21	3	57.2	active
APOA2	1	34.9	active
APOA2	2	34.1	active
APOA2	3	39.8	active

9 of these entries, set out differently:
| gene | technical replicate | viability, normalised (%) | Outcome |
| --- | --- | --- | --- |
| MLLT6 | 2 | 38.8 | active |
| MLLT6 | 3 | 47.4 | active |
| BPTF | 1 | 30.2 | active |
| BPTF | 2 | 16.6 | active |
| BPTF | 3 | 23.7 | active |
| ATF7IP2 | 1 | 45 | active |
| ATF7IP2 | 2 | 53.3 | active |
| ATF7IP2 | 3 | 49.5 | active |
| PDPK1 | 1 | 36.1 | active |

The list goes on:
gene	technical replicate	viability, normalised (%)	Outcome
ING5	1	55.1	active
ING5	2	40.9	active
ING5	3	43.8	active
ZAP70	1	56.4	active
ZAP70	2	67.3	active
ZAP70	3	84.3	inactive
PARP16	1	45.6	active
PARP16	2	38	active
PARP16	3	39.1	active
ERBB3	1	42.3	active
ERBB3	2	30.8	active
ERBB3	3	49.9	active
SULF2	1	50.1	active
SULF2	2	55.4	active
SULF2	3	56.3	active
RPS19BP1	1	59.2	active
RPS19BP1	2	47.5	active
RPS19BP1	3	69.3	active
KALRN	1	47.1	active
KALRN	2	65.1	active
KALRN	3	58	active
CLP1	1	42.7	active
CLP1	2	50.3	active
CLP1	3	35.1	active
